Results are given in words; binding and its absence hold for the method and conditions named. Binding seen in cells or lysates may run through a third protein. Here binding means that the protein was enriched with, or labelled near, the bait; the list need not be complete.
Target: eIF4A2 (endogenous) (human (endogenous in HeLa)) (UniProt Q14240)
Test: affinity purification with mass spectrometry; IP of endogenous eIF4A2 (and eIF4A1, rabbit IgG) from precleared HeLa cytoplasmic lysate; 20 mM Tris-HCl pH 7.5, 200 mM NaCl, 2.5 mM MgCl2, 0.5% Triton X-100, 4C; protein G Dynabeads; LC-MS/MS, emPAI

Sequences of proteins named here, by UniProt entry; tags and fusion partners are left off.
UniProt Q14240: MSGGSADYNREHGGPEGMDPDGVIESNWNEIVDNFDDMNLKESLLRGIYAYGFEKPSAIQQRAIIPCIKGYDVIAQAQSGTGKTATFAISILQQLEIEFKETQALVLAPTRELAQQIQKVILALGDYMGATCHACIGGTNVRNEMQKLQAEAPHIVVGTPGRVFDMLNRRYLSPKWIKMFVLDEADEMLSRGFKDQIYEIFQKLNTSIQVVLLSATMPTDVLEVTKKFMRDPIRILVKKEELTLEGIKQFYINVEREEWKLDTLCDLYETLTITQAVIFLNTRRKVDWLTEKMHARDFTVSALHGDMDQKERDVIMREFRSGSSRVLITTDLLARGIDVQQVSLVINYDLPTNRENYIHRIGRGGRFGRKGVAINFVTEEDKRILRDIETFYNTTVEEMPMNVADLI

B1: CLP1 (protein, UniProt Q92989 1-425)
chain: MGEEANDDKKPTTKFELERETELRFEVEASQSVQLELLTGMAEIFGTELTRNKKFTFDAGAKVAVFTWHGCSVQLSGRTEVAYVSKDTPMLLYLNTHTALEQMRRQAEKEEERGPRVMVVGPTDVGKSTVCRLLLNYAVRLGRRPTYVELDVGQGSVSIPGTMGALYIERPADVEEGFSIQAPLVYHFGSTTPGTNIKLYNKITSRLADVFNQRCEVNRRASVSGCVINTCGWVKGSGYQALVHAASAFEVDVVVVLDQERLYNELKRDLPHFVRTVLLPKSGGVVERSKDFRRECRDERIREYFYGFRGCFYPHAFNVKFSDVKIYKVGAPTIPDSCLPLGMSQEDNQLKLVPVTPGRDMVHHLLSVSTAEGTEENLSETSVAGFIVVTSVDLEHQVFTVLSPAPRPLPKNFLLIMDIRFMDLK
binding: binds
